Results are given in words; binding and its absence hold for the method and conditions named. Binding seen in cells or lysates may run through a third protein. Some binding calls cover weakened binding; strength is not graded here.

Protein sequences, listed by entry. Tags and fused reporters are not part of them.
UniProt Q9Y572: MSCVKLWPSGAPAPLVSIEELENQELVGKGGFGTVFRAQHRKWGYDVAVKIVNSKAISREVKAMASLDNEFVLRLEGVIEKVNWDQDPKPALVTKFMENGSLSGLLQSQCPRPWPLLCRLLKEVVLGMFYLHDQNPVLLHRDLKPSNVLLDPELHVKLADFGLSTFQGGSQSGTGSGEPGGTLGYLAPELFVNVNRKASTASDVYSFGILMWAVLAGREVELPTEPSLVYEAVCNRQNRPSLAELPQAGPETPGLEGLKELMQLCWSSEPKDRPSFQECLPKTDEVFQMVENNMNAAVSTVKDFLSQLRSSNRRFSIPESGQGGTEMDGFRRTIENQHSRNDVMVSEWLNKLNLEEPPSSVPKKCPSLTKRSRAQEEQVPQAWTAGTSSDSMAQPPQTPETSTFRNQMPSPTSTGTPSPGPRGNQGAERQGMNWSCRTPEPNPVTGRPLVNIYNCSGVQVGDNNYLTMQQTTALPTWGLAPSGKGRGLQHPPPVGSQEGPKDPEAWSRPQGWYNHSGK
UniProt Q99873: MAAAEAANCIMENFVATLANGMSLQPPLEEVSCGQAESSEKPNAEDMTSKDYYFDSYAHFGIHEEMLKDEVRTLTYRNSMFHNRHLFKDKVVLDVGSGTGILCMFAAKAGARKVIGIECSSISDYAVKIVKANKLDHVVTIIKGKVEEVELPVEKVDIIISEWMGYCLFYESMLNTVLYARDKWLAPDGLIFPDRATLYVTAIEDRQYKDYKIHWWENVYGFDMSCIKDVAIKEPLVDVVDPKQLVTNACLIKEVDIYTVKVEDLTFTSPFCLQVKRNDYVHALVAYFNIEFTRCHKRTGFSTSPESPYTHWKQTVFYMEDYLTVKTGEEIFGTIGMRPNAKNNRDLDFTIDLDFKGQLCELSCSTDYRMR

In this assay the target is RIP3 (receptor interacting protein kinase 3), endogenous in HT29 cells (human (endogenous in HT29)) (UniProt Q9Y572). The assay is described as follows: co-IP; endogenous proteins in HT29 cells; lysis in RIPA buffer, primary antibody overnight at 4 °C, protein A/G agarose beads, immunoblot.

For “PRMT1 methyltransferase, endogenous in HT29 cells (from UniProt Q99873 1-371) (enzyme)”, the binding entry is given as “binds”.

The values are drawn from PMC10067857.
